Test results taken from PubChem BioAssay AID485298 (National Center for Advancing Translational Sciences (NCATS), 2010).
About 740 (0.23%) of roughly 320,000 compounds were called active. The inconclusive results got no clear call from the source; some entries with a clear call stand among them for comparison. The call rests on the fitted dose curve; in most records, active means well fitted activation curve with a large enough effect; inconclusive means small, poorly fitted or top-dose-only effect; inactive means no such curve, though single readings can be large or run the other way. A potency beside an inconclusive call is a rough fit, not a confirmed value.

experiment: qHTS Assay for Small Molecule Inhibitors of Mitochondrial Division or Activators of Mitochondrial Fusion; further: nearly all actives have a fitted effect of over 45% in size;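 on growth rescue (activation): temperature-sensitive fusion mutants such as fzo1-1 at 37 °C on non-fermentable ethanol glycerol medium; % of control where 0% means no effect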; conditions: S. cerevisiae fusion-defective mutant growth rescue, CellTiterGlo 48 h; growth rescue (activation): at 46.1 µM (top of the series) unless noted
Summary of the method: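 Compounds are tested for their ability to restore growth of mitochondrial fusion-defective yeast strains at non-permissive 37C in YPEG medium over 48 hours. Viability is quantified by luciferase luminescence.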
Potency means the concentration at half of the fitted maximal effect.

Row | SMILES | growth rescue (activation) | Potency
1 | COc1ccc(-c2nn(-c3ccccc3)cc2CNC(=O)c2cccc([N+](=O)[O-])c2)cc1 | inactive: 10.8% | 
2 | O=C1c2ccccc2-c2nnc(-c3ccc(F)cc3)cc21 | inactive: -2.69% | 
3 | COc1ccc(C(=O)NCCOc2ccccc2Cl)c(OC)c1OC |  | inconclusive: 2.82 µM [activator, partial curve]
4 | CCOc1ccc(C)cc1-n1nc2ccccc2n1 | inactive: -5.24% | 
5 | Cc1cc(C)c(C)c(S(=O)(=O)N2CCN(c3ccccn3)CC2)c1C |  | inconclusive: 14.1 µM [activator, partial curve]
6 | Cc1ccc(Cl)cc1NC(=O)[C@@H]1CCC(=O)N1C1OC(=O)c2ccccc21 (some centres not stated) | inactive: 4.66% | 
7 | CCOC(=O)c1c(S(=O)(=O)NCCc2ccc(OC)c(OC)c2)c(C)n(C)c1C |  | inconclusive: 0.501 µM [activator, full curve, poor fit]
8 | CC(C)(C)NC(=O)C(c1ccco1)N(Cc1ccc2c(c1)OCO2)C(=O)Cn1nnc2ccccc21 (configuration not stated) |  | inconclusive: 2 µM [activator, full curve, poor fit]
9 | COC(=O)c1ccc(NC(=O)CN2CCN(c3cccc(Cl)c3)CC2)cc1 |  | inconclusive: 22.4 µM [activator, single point]
10 | O=C(Cc1c[nH]c2ccccc12)OCC(=O)c1ccccc1 | inactive: -0.192% | 
11 | Cc1ccc2oc(C(=O)N3CCC(O)(c4cccc(C(F)(F)F)c4)CC3)c(C)c2c1 | inactive: -6.81% | 
12 | COc1ccc(N2CCN(C(=O)[C@@H]3CCCN3C3=NS(=O)(=O)c4ccccc43)CC2)cc1 | inactive: -3.22% | 
13 | COc1ccc(Cl)cc1NC(=O)CN(C)C(=O)c1sc2ccccc2c1Cl |  | inconclusive: 22.4 µM [activator, single point]
14 | Cc1ccc(C2C(C#N)=C(N)Oc3cc4c(cc32)OCO4)cc1 (configuration not stated) |  | inconclusive: 14.1 µM [activator, partial curve]
15 | COc1ccc2oc3cc(C)[n+]([O-])c(-c4ccc(Cl)cc4)c3c2c1 |  | active: 22.4 µM
16 | O=[N+]([O-])c1ccc(S(=O)(=O)NCC(c2ccco2)N2CCc3ccccc3C2)cc1 (configuration not stated) | inactive: 0.238% | 
17 | NC(=O)c1ccsc1NC(=O)C1CC1 |  | inconclusive: 15.8 µM [activator, partial curve]
18 | O=C(N/N=C/c1cccc(Oc2ccc([N+](=O)[O-])cc2[N+](=O)[O-])c1)c1cncc(Br)c1 | inactive: -1.53% | 
19 | C=CCNc1nc(NCC)nc(N2CCOCC2)n1 | inactive: -8.52% | 
20 | COc1ccc(CCNC(=O)C2CC(c3ccccc3C(F)(F)F)=NO2)cc1 (configuration not stated) |  | inconclusive: 17.8 µM [activator, partial curve]
21 | COc1c(Cl)cc(Cl)cc1C(=O)Nc1ccc(CN2CCCCC2)cc1 |  | inconclusive: 0.501 µM [activator, full curve]
22 | CCC(C)c1ccc(NC(=O)c2ccco2)cc1 (configuration not stated) | inactive: -1.04% | 
23 | Cc1c(C)n(CC(O)CN2CCN(C)CC2)c2ccccc12 (configuration not stated) | inactive: -4.9% | 
24 | O=C(NCc1cccnc1)C1CCN(S(=O)(=O)c2cc(Cl)ccc2Cl)CC1 |  | inconclusive: 35.5 µM [activator, single point]

11 entries from above, ordered by formula weight, ascending.
Row | SMILES | growth rescue (activation) | Potency
17 | NC(=O)c1ccsc1NC(=O)C1CC1 |  | inconclusive: 15.8 µM [activator, partial curve]
2 | O=C1c2ccccc2-c2nnc(-c3ccc(F)cc3)cc21 | inactive: -2.69% | 
14 | Cc1ccc(C2C(C#N)=C(N)Oc3cc4c(cc32)OCO4)cc1 (configuration not stated) |  | inconclusive: 14.1 µM [activator, partial curve]
15 | COc1ccc2oc3cc(C)[n+]([O-])c(-c4ccc(Cl)cc4)c3c2c1 |  | active: 22.4 µM
3 | COc1ccc(C(=O)NCCOc2ccccc2Cl)c(OC)c1OC |  | inconclusive: 2.82 µM [activator, partial curve]
9 | COC(=O)c1ccc(NC(=O)CN2CCN(c3cccc(Cl)c3)CC2)cc1 |  | inconclusive: 22.4 µM [activator, single point]
13 | COc1ccc(Cl)cc1NC(=O)CN(C)C(=O)c1sc2ccccc2c1Cl |  | inconclusive: 22.4 µM [activator, single point]
7 | CCOC(=O)c1c(S(=O)(=O)NCCc2ccc(OC)c(OC)c2)c(C)n(C)c1C |  | inconclusive: 0.501 µM [activator, full curve, poor fit]
24 | O=C(NCc1cccnc1)C1CCN(S(=O)(=O)c2cc(Cl)ccc2Cl)CC1 |  | inconclusive: 35.5 µM [activator, single point]
18 | O=C(N/N=C/c1cccc(Oc2ccc([N+](=O)[O-])cc2[N+](=O)[O-])c1)c1cncc(Br)c1 | inactive: -1.53% | 
8 | CC(C)(C)NC(=O)C(c1ccco1)N(Cc1ccc2c(c1)OCO2)C(=O)Cn1nnc2ccccc21 (configuration not stated) |  | inconclusive: 2 µM [activator, full curve, poor fit]

(more compounds)

Row | SMILES | growth rescue (activation) | Potency
25 | O=C(NCc1nnc(SCc2ccc(F)cc2)n1-c1ccccc1)C12CC3CC(CC(C3)C1)C2 |  | inconclusive: 12.6 µM [activator, single point]
26 | O=C(NC(=S)NC1CCCCC1)c1ccc(F)cc1 | inactive: -3.54% | 
27 | COc1ccccc1-c1nnc2sc(-c3ccc(N(C)C)cc3)nn12 |  | inconclusive: 35.5 µM [activator, single point]
28 | CCNC(=O)c1ccc2c(c1)C1C3CCC(C3)C1C(c1ccccc1)N2 (configuration not stated) |  | inconclusive: 17.8 µM [activator, single point]
29 | Cc1cc(NC(=O)CSc2cn(CCNC(=O)c3ccccc3)c3ccccc23)no1 | inactive: -0.322% | 
30 | Clc1ccc(COn2c(-c3ccc(Cl)cc3Cl)nc3ncccc32)cc1 |  | inconclusive: 17.8 µM [activator, partial curve]
31 | O=C(NCc1cccnc1)c1ccc(COc2ccccc2Br)o1 | inactive: -7.61% | 
32 | CCN(c1nc(N)c(C(=O)N=C(N)N)nc1Cl)C(C)C |  | inconclusive: 18.4 µM [activator, partial curve, poor fit]
33 | CCn1c2ccccc2c2cc(/C=N/NC(=O)c3cc(O)cc(O)c3)ccc21 | inactive: -7.46% | 
34 | COc1ccc(S(=O)(=O)N(NC2=NS(=O)(=O)c3ccccc32)C(=O)C(C)C)cc1 | inactive: -5.87% | 
35 | O=C(O)c1ccc(-c2ccc(-c3ccccc3)cc2)s1 |  | inconclusive: 0.631 µM [activator, full curve]
36 | CC1Cc2ccccc2N1C(=O)CSc1nc2c(c(=O)n(C)c(=O)n2C)n1Cc1ccccc1 (configuration not stated) |  | inconclusive: 17.8 µM [activator, partial curve]
37 | O=C(COc1cc(Cl)c(Cl)cc1Cl)Nc1cccc(O)c1 |  | inconclusive: 14.1 µM [activator, partial curve]
38 | CCCNC(=O)c1ccc(Cl)cc1Cl |  | inconclusive: 3.16 µM [activator, single point]
39 | C/C(=N\NC(=O)c1nnn(-c2nonc2N)c1-c1ccccc1)c1ccccc1O | inactive: -3.18% | 
40 | CCCC1NC(=S)N(C2CCCCC2)C1=O (configuration not stated) | inactive: -4.32% | 
41 | CCCOc1ccccc1OCC(=O)Nc1ccc(S(=O)(=O)N2CCCCC2)cc1 |  | inconclusive: 35.5 µM [activator, single point]
42 | CC1CCCC(NC(=O)CN2C(=O)c3cccnc3Oc3ccc(Cl)cc32)C1C (configuration not stated) |  | inconclusive: 1.41 µM [activator, full curve]
43 | CC(=O)c1ccc(N2CCN(C(=O)CN(C)S(=O)(=O)c3cnc[nH]3)CC2)cc1 |  | inconclusive: 7.08 µM [activator, full curve]
44 | CCc1ccccc1-n1c(-c2ccncc2)n[nH]c1=S |  | inconclusive: 0.631 µM [activator, full curve]
45 | O=C(CC12CC3CC(CC(C3)C1)C2)NCC(=O)OCc1cc(=O)oc2ccc3ccccc3c12 |  | inconclusive: 15.8 µM [activator, single point]
46 | COc1cccc(C(=O)N2c3ccccc3Sc3ccccc32)c1 |  | inconclusive: 12.6 µM [activator, partial curve]
47 | Cc1noc(C)c1S(=O)(=O)Nc1ccc(C(C)C)cc1 |  | inconclusive: 5.62 µM [activator, partial curve]
